# Data as given in PubChem BioAssay AID1347076 (National Center for Advancing Translational Sciences (NCATS), 2019).
# Values joined by “and” are separate entries in the source; they are usually repeats but may differ in a detail not shown here. Equal values may be shown once. Among all 400,000 compounds or so, about 13,000 (3.2%) were called active. Inconclusive means that the source gave no clear call. Such entries were picked first, then a sample of the others. Calls follow the shape of the dose curve; as a rule, active = well fitted cell-killing curve with a large enough effect; inconclusive = small, poorly fitted or top-dose-only effect, or effect the other way; inactive = flat fitted curve, though single readings scatter. Where the call is inconclusive, the potency comes from a doubtful curve fit.
# Assay: qHTS assay for MDR1-selective chemotherapeutics: Primary screen using the drug-selected MDR subline cells KB-V1; also: nearly all actives have a fitted effect of over 60% in size
# Conditions: KB-V1 MDR cells viability, CellTiter-Glo, 72 h; activity change, negative = cytotoxicity: at 46.1 µM (top of the series)
# Method in brief: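 Readout: CellTiter-Glo luminescence, 10 min after addition. Cells: KB-V1 MDR subline, 72 h at 37 degrees C with compound. Analysis: corrected, normalized data fitted to concentration-effect curves.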
# % is scaled to controls: 0 for no effect and ±100 for the full control effect; potency is read from the fitted curve at half-maximal effect.
SMILES,Potency,"activity change, negative = cytotoxicity"
O=C(Nc1ccc(Oc2ccccc2)cc1)C1CCCN(c2ncccn2)C1 (stereo not drawn),active: 5.8 µM,
CCCCC(=O)NC(=S)NNS(=O)(=O)c1ccccc1,inactive,
CCOC(=O)N1CCN(CC(O)COc2ccc(C)cc2C(C)(C)C)CC1 (stereo not drawn),"inconclusive: 2.06 µM [cytotoxic, full curve]",
NC(=O)c1c(NC(=O)CN2C(=O)CCC2=O)sc2c1CCCCC2,inactive,
Cc1ccc(NC(=O)C(C)Sc2nc(=O)cc(N)n2-c2cccc(C)c2)cc1 (stereo not drawn),inactive,
O=C(c1cc(COc2ccc(F)cc2Cl)on1)N1CCCC(c2ccccc2)C1 (stereo not drawn),"inconclusive: 18.4 µM [cytotoxic, partial curve]",
COc1ccc(S(=O)(=O)N(C)C)cc1NC(=O)C1CCN(c2ncnc3sc(C)c(C)c23)CC1,,inconclusive: 0%
CCCCC(=O)N1CCN(c2nc3ccc(Cl)cc3s2)CC1,"inconclusive: 6.51 µM [cytotoxic, full curve]",
CCOc1ccc2nc(Cl)c(CN(C(C)=O)C3CCCCC3)cc2c1,"inconclusive: 18.4 µM [cytotoxic, single point]",
Cc1sc2ncnc(SCC(=O)N(C(C)C)C(C)C)c2c1C,inactive,
O=C(C1=C[C@@H](C2CCCCC2)C[C@@H](OCc2ccc(CO)cc2)O1)N1CCN(Cc2ccc3c(c2)OCO3)CC1,"inconclusive: 18.4 µM [cytotoxic, single point]",
Cc1cccc(N2CCN(C(=O)CN3CCSc4ccccc43)CC2C)c1 (stereo not drawn),"inconclusive: 11.6 µM [cytotoxic, partial curve]",
O=C(CSc1nnc2ccc(-c3ccncc3)nn12)Nc1ccc(F)cc1,inactive,
COc1ccc(Br)cc1C(C[N+](=O)[O-])c1c(N)n(C)c(=O)n(C)c1=O (stereo not drawn),"inconclusive: 18.4 µM [cytotoxic, single point]",
CCc1ccc(-c2nc3c(c(SCc4ccccc4F)n2)Cc2c(CO)cnc(C)c2O3)cc1,inactive,
O=C(NCC(c1cccnc1)N1CCN(c2ccc(F)cc2)CC1)OCc1ccccc1 (stereo not drawn),"inconclusive: 16.4 µM [cytotoxic, single point]",
CCCn1c(C)cc(C(=O)Cn2nnc3ccccc3c2=O)c1C,"inconclusive: 7.31 µM [cytotoxic, partial curve]",
N#Cc1cc(N2CCCCC2)c([N+](=O)[O-])cc1C#N,inactive,
Cc1ccc(C(C(=O)NC2CCCC2)N(CCCO)C(=O)Cn2nnc(-c3ccc(C)o3)n2)cc1 (stereo not drawn),inactive,
CCCC(=O)C1=C(O)C(c2cccc(Oc3ccccc3)c2)CCC1=O (stereo not drawn),"inconclusive: 0.366 µM [cytotoxic, full curve]",
COc1cc(NC(=O)COC(=O)C=C(C)C)c(C)cc1[N+](=O)[O-],inactive,
COc1ccc(NC(=O)c2ccccc2)c([N+](=O)[O-])c1,"inconclusive: 16.4 µM [cytotoxic, partial curve, poor fit]",
CN(c1ccc(C(=O)NCCSC(C)(C)C)cc1)S(C)(=O)=O,"inconclusive: 11.6 µM [cytotoxic, partial curve, poor fit]",

SMILES,Potency,"activity change, negative = cytotoxicity"
COc1cccc(CN(C(=O)/C=C/c2ccc(Cl)cc2)C2CCS(=O)(=O)C2)c1 (stereo not drawn),"inconclusive: 23.1 µM [cytotoxic, single point]",
CC(NC(=O)Cn1c(=O)[nH]c2ccsc2c1=O)C12CC3CC(CC(C3)C1)C2 (stereo not drawn),inactive,
COc1ccc2[nH]c3c(c2c1)CCN1C(=O)C(CC(=O)NCCN2CCOCC2)C[C@H](C(=O)N2CCCCC2)[C@@]31C (stereo partly drawn),"inconclusive: 13 µM [rising, single point]",
COc1ccc(C(c2nnnn2Cc2ccc(F)cc2)N2CCN(c3ccccc3)CC2)cc1 (stereo not drawn),"inconclusive: 6.51 µM [cytotoxic, partial curve]",
Cc1nnc(OCc2nc3ccccc3n2C)c2ccccc12,active: 9.2 µM,
CC/C(=N\NC(=O)Cc1ccc(Br)cc1)c1cccs1,inactive,
CC12CCC(=O)N1C(C(=O)NNC(=O)c1ccccc1F)CS2 (stereo not drawn),inactive,
CCCn1c(SCc2nc(-c3ccc(OC)c(OC)c3)no2)nnc1-c1ccccc1,"inconclusive: 29.1 µM [cytotoxic, single point]",
Cc1ccc(NC(=O)c2cnn3c(C(F)F)cc(-c4ccccc4)nc23)cc1F,"inconclusive: 20.6 µM [rising, single point]",
COc1ccc(-c2ccc(C(=O)Nc3cc(OC)c(OC)c(OC)c3)c3occc23)c(C)c1,active: 6.51 µM,
Cc1ccc(S(=O)(=O)N2CCCCC2)cc1C(=O)OC(C)C(=O)NCC1CCCCC1 (stereo not drawn),"inconclusive: 5.17 µM [cytotoxic, full curve]",
CCCCOP(=O)(c1ccc(N(C)C)cc1)C(O)c1cc(OC)ccc1OC (stereo not drawn),"inconclusive: 25.9 µM [cytotoxic, partial curve, poor fit]",
COc1ccc(OC)c(CNC(=O)c2[nH]c(C(F)(F)F)nc2-c2ccccc2)c1,inactive,
O=C(Cc1ccccc1[N+](=O)[O-])N1CCN(c2ccc(F)cc2)CC1,"inconclusive: 29.1 µM [cytotoxic, single point]",
Cc1nc([N+](=O)[O-])nn1C12CC3CC(CC(Br)(C3)C1)C2,"inconclusive: 23.1 µM [cytotoxic, partial curve, poor fit]",
COc1ccc(CNC(=O)C2CCCN2C(=O)NC2CCCCC2)cc1 (stereo not drawn),"inconclusive: 32.6 µM [cytotoxic, single point]",
O=C(NCCc1ccccc1)C1CCC(CNS(=O)(=O)c2ccccc2)CC1 (stereo not drawn),"inconclusive: 14.6 µM [cytotoxic, partial curve] and inconclusive: 29.1 µM [cytotoxic, partial curve, poor fit]",
OC1CCCN(c2c3c(nc4cc(-c5cccc(Cl)c5)nn24)CCC3)C1 (stereo not drawn),active: 16.4 µM,
COc1ccc(-c2noc(CCC(=O)N(C)c3cccc(C)c3)n2)cc1,"inconclusive: 32.6 µM [cytotoxic, single point]",
CC(C)NC(=O)c1ccc(-c2cc(C(F)(F)F)ccc2Cl)o1,inactive,
CC(C)Oc1ccc(C(=O)N2CCN(CCc3ccccn3)CC2)cc1,inactive,
COc1ccc(NC(=O)Cn2nnc(-c3ccccc3NC(=O)c3ccco3)n2)cc1,"inconclusive: 2.91 µM [cytotoxic, full curve, poor fit]",
COC(=O)c1ccc(CN2C(=O)NC(Cc3c[nH]c4ccccc34)C2=O)cc1 (stereo not drawn),active: 18.4 µM,

SMILES,Potency,"activity change, negative = cytotoxicity"
O=C(O)CCC(=O)N(Cc1ccco1)C1CC(=O)N(c2ccccc2)C1=O (stereo not drawn),"inconclusive: 0.0092 µM [rising, full curve, poor fit]",
O=C(CNC(=O)c1ccccc1F)NCc1ccncc1,"inconclusive: 32.6 µM [rising, partial curve, poor fit]",
CCOc1ccccc1NC(=O)CN(C)S(=O)(=O)c1ccc(OC)c(C)c1,"inconclusive: 14.6 µM [cytotoxic, single point]",
O=[N+]([O-])c1cc(-c2ccccc2)cc([N+](=O)[O-])c1O,active: 20.6 µM,
Fc1ccc(-c2nc3c(Cl)cc(C(F)(F)F)cn3c2Cc2ccccc2)cc1,"inconclusive: 29.1 µM [cytotoxic, single point]",
O=C1C=CC2(C=C1)O[C@H](Cc1ccccc1)[C@@H](Cc1ccccc1)O2,active: 16.4 µM,
C[C@@H]1CN([C@@H](C)CO)C(=O)CCCn2nncc2CO[C@H]1CN(C)S(=O)(=O)c1ccc(Oc2ccccc2)cc1,"inconclusive: 0.116 µM [cytotoxic, full curve, poor fit]",
O=C(OCC(=O)N1CCCc2ccccc21)c1ccccc1[N+](=O)[O-],"inconclusive: 18.4 µM [cytotoxic, single point]",
Cc1noc(C)c1C(=O)Nc1ccc(S(=O)(=O)N2CCCCC2)cc1,"inconclusive: 18.4 µM [cytotoxic, single point]",
COc1ccc(NC(=O)C2CCCN(S(=O)(=O)c3cccc4cccnc34)C2)cc1OC (stereo not drawn),"inconclusive: 23.1 µM [cytotoxic, single point]",
Oc1ccc2ccccc2c1C1Nc2cccc3cccc(c23)N1,"inconclusive: 20.6 µM [cytotoxic, single point]",
COc1ccc(-c2sc3cc4c(cc3c2C#CC2(O)CCCCC2)OCO4)cc1,inactive,
Cc1cccc(OCc2nc(-c3ccccn3)n[nH]2)c1,"inconclusive: 16.4 µM [cytotoxic, partial curve, poor fit]",
CCc1cc(C(=O)NNC(=S)Nc2cccc(C)c2)cs1,inactive,
Cc1cc(C)cc(Oc2ccc(C(F)(F)F)cc2C#N)c1,"inconclusive: 18.4 µM [rising, single point]",
COc1ccc(Nc2nnc(-c3ccc(N4CCOCC4)c([N+](=O)[O-])c3)c3ccccc23)cc1,active: 16.4 µM,
CCOC(=O)c1ccc(N2C=C(C(=O)OC)C(c3cccc(O)c3)C(C(=O)OC)=C2)cc1,inactive,
CCN(CC)S(=O)(=O)c1cccc(NC(=O)CN(C)Cc2cccc(OC)c2)c1,"inconclusive: 11.6 µM [cytotoxic, partial curve]",
CC1CCN(S(=O)(=O)c2cccc(S(=O)(=O)N3CCCC3)c2)CC1,"inconclusive: 8.2 µM [cytotoxic, partial curve]",
Cc1cccc(OCc2nnc(SCC(=O)N(C(C)C)C(C)C)n2Cc2ccco2)c1C,active: 10.3 µM,
COc1ccccc1CNC(=O)CN(C)S(=O)(=O)c1cccc2cccnc12,"inconclusive: 0.0411 µM [rising, full curve]",
Oc1c(C(c2ccc(Cl)cc2Cl)N2CCN(c3ccccc3)CC2)sc2nc(-c3ccco3)nn12 (stereo not drawn),"inconclusive: 20.6 µM [rising, partial curve, poor fit]",

# An excerpt of these results, with tabs.
SMILES	Potency	activity change, negative = cytotoxicity
CC1CCN(S(=O)(=O)c2cccc(S(=O)(=O)N3CCCC3)c2)CC1	inconclusive: 8.2 µM [cytotoxic, partial curve]	
Cc1cccc(OCc2nnc(SCC(=O)N(C(C)C)C(C)C)n2Cc2ccco2)c1C	active: 10.3 µM	
COc1ccccc1CNC(=O)CN(C)S(=O)(=O)c1cccc2cccnc12	inconclusive: 0.0411 µM [rising, full curve]	
Oc1c(C(c2ccc(Cl)cc2Cl)N2CCN(c3ccccc3)CC2)sc2nc(-c3ccco3)nn12 (stereo not drawn)	inconclusive: 20.6 µM [rising, partial curve, poor fit]	
